Laboratory results reported in PubChem BioAssay AID1347076 (National Center for Advancing Translational Sciences (NCATS), 2019).
Where “and” joins values, the source holds several entries; their conditions need not be identical. Equal entries are not always repeated. The campaign covered roughly 400,000 compounds. About 13,000 (3.2%) were called active. This list was built around the results that the source calls inconclusive (neither active nor inactive); the mix of calls is not that of the screen. Calls come from the whole dose curve; as a rule, active = well fitted cell-killing curve with a large enough effect; inconclusive = small, poorly fitted or top-dose-only effect, or effect the other way; inactive = flat fitted curve, though single readings scatter. Where the call is inconclusive, the potency comes from a doubtful curve fit.

assay: qHTS assay for MDR1-selective chemotherapeutics: Primary screen using the drug-selected MDR subline cells KB-V1; settings: KB-V1 MDR cells viability, CellTiter-Glo, 72 h; activity change, negative = cytotoxicity: at 46.1 µM (top of the series); note: nearly all actives have a fitted effect of over 60% in size
Procedure, shortened: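 Luminescent ATP read-out (CellTiter-Glo, 10 min) measures survival of drug-selected KB-V1 MDR cells after 72 h, 37 degrees C compound exposure. Medium: phenol-red-free DMEM, 10% FBS. Values from fitted concentration-response curves.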
% is set by controls: 0 for no effect and ±100 for the full control effect; potency is the fitted concentration of half-maximal effect.

SMILES | Potency | activity change, negative = cytotoxicity
Cc1cccc(C)c1NC(=O)CNc1ccccc1 | inconclusive: 25.9 µM [cytotoxic, partial curve, poor fit] | 
CCOCCn1ccc2c(OCC(=O)NCCc3ccc(OC)c(OC)c3)cccc2c1=O |  | inactive: -8.98%
CCOC(=O)c1c(C)[nH]c(N=Nc2ccccc2)c1C | inconclusive: 14.6 µM [cytotoxic, single point] | 
COc1cccc(-n2ccnc2SCC(=O)Nc2cccc(C)c2C)c1 | inconclusive: 29.1 µM [cytotoxic, single point] | 
COc1ccc(NC(=O)CCc2nnc3ccc(N4CCC5(CC4)OCCO5)nn23)cc1 | inconclusive: 4.61 µM [rising, full curve] | 
O=C(NCCN1CCOCC1)c1ccc2c(c1)N(Cc1ccccc1F)C(=O)c1ccccc1S2 |  | inactive: -2.35%
COc1ccc(Cc2nc3ccccc3n2C)cc1 | inconclusive: 18.4 µM [cytotoxic, single point] | 
COc1ccc(Nc2cc(=O)oc3ccccc23)cc1 | inconclusive: 0.517 µM [cytotoxic, full curve] | 
CC1CC(C)CN(S(=O)(=O)c2ccc(Oc3ccc([N+](=O)[O-])cc3)cc2)C1 (stereo unspecified) | active: 13 µM | 
Cc1ccc(N2CC(C(=O)Nc3ccccc3OC(F)F)CC2=O)cc1 (stereo unspecified) |  | inactive: 12.1%
Cc1cc(NC(=O)c2noc3c2CCCC3)no1 | inconclusive: 16.4 µM [cytotoxic, single point] | 
CCc1cc(CNC(=O)c2cc(COc3ccc(C)nc3)on2)on1 | inconclusive: 18.4 µM [cytotoxic, single point] | 
CCc1ccc(NC(=O)Cn2cnc3sc(C)c(S(=O)(=O)N4CCC(C)CC4)c3c2=O)cc1 |  | inactive: 0.478%
O=C1c2ccccc2NC(c2cccnc2)N1c1ccccc1F (stereo unspecified) | inconclusive: 29.1 µM [cytotoxic, single point] | 
N=C1/C(=C/c2cccn2-c2ccc([N+](=O)[O-])cc2)C(=O)N=C2SC=CN12 |  | inconclusive: -85%
Cc1ccc([C@H]2C[C@@H](O)[C@H](n3cc(COC(=O)c4ccccc4)nn3)CN2Cc2cccs2)cc1 | inconclusive: 32.6 µM [rising, partial curve, poor fit] | 
Cc1c(N=NC2=C(O)CC(C)(C)CC2=O)c(=O)n(-c2ccccc2)n1C | inconclusive: 29.1 µM [cytotoxic, single point] | 
Cc1ccc(OCCCC(=O)N2CCOCC2)c(C)c1 | inconclusive: 20.6 µM [cytotoxic, single point] | 
Cc1c(CCC(=O)O)c(=O)oc2cc(OCc3cccc(Cl)c3)ccc12 | inconclusive: 29.1 µM [rising, single point] | 
Cc1ccc(-c2nc(CSCC(=O)N3CCCC3)c(C)o2)cc1 | inconclusive: 20 µM [cytotoxic, single point] | 
CN(Cc1ccccc1)c1ccc(C(=O)O)cc1[N+](=O)[O-] |  | inactive: 17.4%
O=C(Nc1cccc([N+](=O)[O-])c1)C12CC3CC(C1)CC(n1cnc([N+](=O)[O-])n1)(C3)C2 |  | inactive: -45.4%
Cn1cc(C(=O)NCc2cccs2)c(=O)c2cc(S(=O)(=O)N3CCCC3)ccc21 | active: 20.6 µM | 
O=S(=O)(c1cccc(Br)c1)N1CCN(c2ncnc3scc(-c4ccccc4)c23)CC1 | inconclusive: 0.164 µM [cytotoxic, full curve] | 

Molecules from the list above with two or more sulfur atoms (three):
SMILES | Potency | activity change, negative = cytotoxicity
CCc1ccc(NC(=O)Cn2cnc3sc(C)c(S(=O)(=O)N4CCC(C)CC4)c3c2=O)cc1 |  | inactive: 0.478%
Cn1cc(C(=O)NCc2cccs2)c(=O)c2cc(S(=O)(=O)N3CCCC3)ccc21 | active: 20.6 µM | 
O=S(=O)(c1cccc(Br)c1)N1CCN(c2ncnc3scc(-c4ccccc4)c23)CC1 | inconclusive: 0.164 µM [cytotoxic, full curve] | 

Two neighbouring compounds already listed, for reference:
SMILES | Potency | activity change, negative = cytotoxicity
CCOC(=O)c1c(C)[nH]c(N=Nc2ccccc2)c1C | inconclusive: 14.6 µM [cytotoxic, single point] | 
COc1cccc(-n2ccnc2SCC(=O)Nc2cccc(C)c2C)c1 | inconclusive: 29.1 µM [cytotoxic, single point] | 

The results go on:

SMILES | Potency | activity change, negative = cytotoxicity
CCOCc1c(C(=O)NCc2ccccc2CN2CCCC2)oc2ccccc12 | inconclusive: 25.9 µM [cytotoxic, single point] | 
COc1ccc(Cc2nc3ccc(C(=O)NC(C)Cc4ncccc4C)cc3o2)cc1OC (stereo unspecified) | inconclusive: 2.91 µM [cytotoxic, full curve] | 
O=C(CN(C(=O)c1csnn1)c1ccc(Br)cc1)NC1CCCC1 | inconclusive: 14.6 µM [cytotoxic, partial curve, poor fit] | 
O=c1c2c3c(sc2nnn1Cc1ccc(Br)cc1)CCCC3 |  | inactive: -24.3%
Clc1ccc2nc(-c3ccccc3)nc(C(Cl)Cl)c2c1 | active: 3.66 µM | 
COc1ccccc1S(=O)(=O)Nc1ccc(S(=O)(=O)Nc2nccs2)cc1 | inconclusive: 29.1 µM [rising, single point] | 
Cc1ccc(OCCCn2c(C3CC(=O)N(c4cccc(Cl)c4)C3)nc3ccccc32)c(C)c1 (stereo unspecified) |  | inactive: -10.9%
CCCCCCCN=C(C)c1ccccc1O | inconclusive: 14.6 µM [rising, partial curve, poor fit] | 
NC(=O)c1ccc(C(=O)c2ccc([N+](=O)[O-])cc2)cc1 | inconclusive: 29.1 µM [rising, single point] | 
Cc1nc(N)sc1-c1csc(Nc2ccc(Cl)cn2)n1 | active: 18.4 µM | 
O=C(O)/C=C1\NC(=O)c2ccccc21 |  | inactive: 9.89%
CCOC(=O)c1c(CC(C)C)csc1NC(=O)COC(=O)C1=NNC(=O)CC1 | inconclusive: 9.2 µM [rising, partial curve, poor fit] | 
Cc1ccsc1C(=O)OCC(=O)NCCNC(=O)COC(=O)c1sccc1C |  | inactive: -15.9%
COc1ccc(-c2cnc(C)o2)cc1S(=O)(=O)Nc1ccc(C)c(F)c1 | active: 5.8 µM | 
Cc1ccc(CN2CCSc3ccc(C(=O)N4CCN(c5cccc(C)c5C)CC4)cc32)cc1 | inconclusive: 23.1 µM [cytotoxic, single point] | 
Cc1cccc(NS(=O)(=O)c2ccc(C(=O)N3CCN(c4ccccc4O)CC3)cc2)c1C | inconclusive: 11.6 µM [cytotoxic, partial curve, poor fit] | 
CCCCOC(=O)NC1CCc2cc(OC)c(OC)c(OC)c2-c2ccc(SC)c(=O)cc21 (stereo unspecified) | active: 0.291 µM | 
CCOc1ccc(-c2ccc(SCC(=O)N3CCOCC3)nn2)cc1 | inconclusive: 16.4 µM [cytotoxic, single point] | 
CCCCN1C[C@H](CSC)[C@@H](CC(=O)NC)C1=O | inconclusive: 29.1 µM [rising, single point] | 
Clc1ccc2nc(-c3ccccn3)c(Nc3ccc4c(c3)OCO4)n2c1 | inconclusive: 23.1 µM [cytotoxic, single point] | 
O=C(O)c1ccc(CN(c2ccccc2)S(=O)(=O)c2ccccc2)cc1 | inconclusive: 29.1 µM [rising, single point] | 
O=C1OC(Nc2ccc3c(c2)OCO3)c2ccccc21 (stereo unspecified) | inconclusive: 35.5 µM [cytotoxic, single point] | 
COC(=O)c1ccccc1COn1c(=O)c(C)[n+]([O-])c2ccccc21 | inconclusive: 29.1 µM [cytotoxic, single point] | 
COCC(=O)N1CCCc2ccccc21 | inconclusive: 14.6 µM [cytotoxic, partial curve, poor fit] | 

SMILES | Potency | activity change, negative = cytotoxicity
CCOc1ccc2[nH]cc(C(=O)NCc3ccc(F)cc3)c(=O)c2c1 |  | inactive: 8.08%
CCC(CC)c1nn2c(N)c(/C=C3\C=Nc4ccccc43)c(=O)nc2s1 |  | inactive: 11.4%
O=C(OCc1ccc([N+](=O)[O-])cc1)C1CCN(S(=O)(=O)c2ccccc2)CC1 | inconclusive: 0.146 µM [rising, full curve] | 
CC1(C)CC(=O)C2=C(C1)N=C1c3ccccc3C(=O)C1C2c1ccc(Cl)cc1 (stereo unspecified) | inconclusive: 25.9 µM [cytotoxic, single point] | 
CCCCC(=O)N(Cc1ccc2c(c1)OCO2)Cc1nc2ccccc2c(=O)[nH]1 | inconclusive: 11.6 µM [cytotoxic, partial curve] | 
CCCNc1nc2c(c(=O)n(C)c(=O)n2C)n1Cc1cccc(C)c1 | active: 9.2 µM | 
CCN(CC)C(=O)C1=C(C)N(Cc2ccc(F)cc2)C(=O)C(CC(=O)NCc2cccs2)C1 (stereo unspecified) | inconclusive: 20.6 µM [cytotoxic, single point] | 
CCOC(=O)Nc1sc(C)c(C)c1C(N)=O | inconclusive: 29.1 µM [rising, single point] | 
COc1ccccc1NC(=O)c1ccc(Br)c(S(=O)(=O)N2CCCC2)c1 | inconclusive: 8.2 µM [cytotoxic, partial curve, poor fit] | 
Cc1ccc(Nc2nnc(SCC(=O)c3ccc(O)cc3O)s2)cc1 |  | inactive: 2.12%
O=C1/C(=C/Nc2cccc([N+](=O)[O-])c2)CCc2ccccc21 | inconclusive: 8.2 µM [cytotoxic, partial curve, poor fit] | 
CCn1ncc(Br)c1C(=O)Nc1cc([N+](=O)[O-])ccc1C | active: 16.4 µM | 
COCC(=O)NNC(=O)c1ccc(OC)cc1 |  | inactive: -3.23%
COc1ccc([C@@H]2[C@@H]3C(=O)N(C(C)(C)C)C(=O)[C@@H]3[C@]3(Cc4ccc(Cl)cc4)C(=O)N(c4cccc(F)c4)C(=O)N23)cc1 |  | inactive: -9.31%
Cc1nc2ccc(-c3nc4ccccc4[nH]3)cc2[nH]1 |  | inactive: 3.42%
Cc1ccc(-n2nnnc2Sc2ccc(S(=O)(=O)NCCN(C)C)cc2[N+](=O)[O-])cc1 | inconclusive: 20.6 µM [cytotoxic, single point] | 
CCN(C(=O)CN1CCCCC1C)c1c(N)n(Cc2ccccc2)c(=O)[nH]c1=O (stereo unspecified) | inconclusive: 32.6 µM [rising, single point] | 
Cc1ccc(Cl)cc1NC(=O)c1ccc(-c2nc(CSc3ccccc3)c(C)o2)cc1 |  | inactive: -27.7%
COc1cc(/C=N/NC(=O)C2COc3ccccc3O2)cc(OC)c1OC (stereo unspecified) |  | inconclusive: -77%
O=C1c2ccccc2C(=O)N1c1ccc(S(=O)(=O)N2CCCCC2)cc1 |  | inactive: -6.12%
COc1ccc(Cn2c(C3CC3)nc3ccc(NC(=O)C4CC4)cc3c2=O)cc1 | active: 23.1 µM | 
CCOC(=O)C1C(=O)C=C(c2ccc(C)cc2)CC1c1ccc([N+](=O)[O-])cc1 (stereo unspecified) | active: 7.31 µM | 
CCCCCn1c(=NC(=O)c2ccco2)c(C(=O)OCC)cc2c(=O)n3ccccc3nc21 | inconclusive: 3.66 µM [cytotoxic, partial curve, poor fit] and active: 5.17 µM | 
